Source: patent publication US11109819B2, “System and method for quantitatively mapping mitochondrial membrane potential” (The General Hospital Corporation, priority 2016, dated 2021)

Tested on: mitochondrial membrane potential of myocardium
Assay: Quantitative PET mapping of mitochondrial membrane potential with 18F-TPP+
Type: in vivo, domestic swine
Conditions: injured pig, assuming ΔΨc=−30 mV, ƒmito=0.15, FIG. 9

`[18F]c1ccc([P+](c2ccccc2)(c2ccccc2)c2ccccc2)cc1` [^18F-TPP^+, ^18F-tetraphenylphosphonium] gave a ΔΨm (core of the tissue injury) of 20 mV and a ΔΨm (other vascular territories) of 145 mV.

The amount applied is not stated for every result.
